Reference: paper PMC10897178, “FANCJ DNA helicase is recruited to the replisome by AND-1 to ensure genome stability” (EMBO Reports, 2024)
No constants are given. Whether binding was seen depends on the method and setting. Binding seen in cells or lysates may run through a third protein. Some binding calls cover weakened binding; strength is not graded here. Sequences can lack the tags named with a protein.

Legend:
Assay in all cases: co-IP; anti-Flag agarose beads; whole extracts of HeLa FJ-KO cells transiently transfected with Flag-FANCJ WT or mutants; Western blot
[1] = target: T1, Flag-tagged FANCJ N734H (in HeLa FJ-KO cells) (human) (UniProt Q9BX63)
T1 sequence: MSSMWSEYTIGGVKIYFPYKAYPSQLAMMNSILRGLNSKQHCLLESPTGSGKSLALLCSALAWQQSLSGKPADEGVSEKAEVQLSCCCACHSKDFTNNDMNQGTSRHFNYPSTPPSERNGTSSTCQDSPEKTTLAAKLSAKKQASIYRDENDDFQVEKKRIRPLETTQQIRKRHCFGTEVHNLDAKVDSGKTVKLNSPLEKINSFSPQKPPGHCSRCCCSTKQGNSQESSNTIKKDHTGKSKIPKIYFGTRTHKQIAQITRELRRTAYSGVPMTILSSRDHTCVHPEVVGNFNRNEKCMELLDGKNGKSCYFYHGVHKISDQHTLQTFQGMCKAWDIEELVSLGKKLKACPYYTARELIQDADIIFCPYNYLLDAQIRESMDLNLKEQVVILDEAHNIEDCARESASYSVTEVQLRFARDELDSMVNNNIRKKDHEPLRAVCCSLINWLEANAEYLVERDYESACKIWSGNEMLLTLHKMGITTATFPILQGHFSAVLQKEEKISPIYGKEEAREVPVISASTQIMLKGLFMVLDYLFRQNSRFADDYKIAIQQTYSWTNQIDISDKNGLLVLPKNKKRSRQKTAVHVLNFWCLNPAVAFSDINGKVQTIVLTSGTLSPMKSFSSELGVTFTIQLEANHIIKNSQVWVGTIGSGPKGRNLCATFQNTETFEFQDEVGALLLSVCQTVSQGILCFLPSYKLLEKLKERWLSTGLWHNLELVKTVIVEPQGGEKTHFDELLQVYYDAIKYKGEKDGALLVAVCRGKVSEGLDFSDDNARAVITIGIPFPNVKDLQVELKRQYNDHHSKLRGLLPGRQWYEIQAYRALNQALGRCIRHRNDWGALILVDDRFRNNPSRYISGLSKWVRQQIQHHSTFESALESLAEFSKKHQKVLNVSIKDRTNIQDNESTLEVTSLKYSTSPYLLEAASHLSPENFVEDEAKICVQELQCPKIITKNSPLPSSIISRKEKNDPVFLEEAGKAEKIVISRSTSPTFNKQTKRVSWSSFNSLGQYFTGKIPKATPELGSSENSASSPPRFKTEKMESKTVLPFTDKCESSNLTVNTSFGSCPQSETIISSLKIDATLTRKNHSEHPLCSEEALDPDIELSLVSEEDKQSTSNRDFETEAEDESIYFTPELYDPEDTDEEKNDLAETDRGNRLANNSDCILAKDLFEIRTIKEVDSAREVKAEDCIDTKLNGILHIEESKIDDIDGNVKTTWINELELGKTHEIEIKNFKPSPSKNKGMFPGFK

[2] = target: T2, Flag-tagged FANCJ D736H (in HeLa FJ-KO cells) (human) (UniProt Q9BX63)
T2 sequence: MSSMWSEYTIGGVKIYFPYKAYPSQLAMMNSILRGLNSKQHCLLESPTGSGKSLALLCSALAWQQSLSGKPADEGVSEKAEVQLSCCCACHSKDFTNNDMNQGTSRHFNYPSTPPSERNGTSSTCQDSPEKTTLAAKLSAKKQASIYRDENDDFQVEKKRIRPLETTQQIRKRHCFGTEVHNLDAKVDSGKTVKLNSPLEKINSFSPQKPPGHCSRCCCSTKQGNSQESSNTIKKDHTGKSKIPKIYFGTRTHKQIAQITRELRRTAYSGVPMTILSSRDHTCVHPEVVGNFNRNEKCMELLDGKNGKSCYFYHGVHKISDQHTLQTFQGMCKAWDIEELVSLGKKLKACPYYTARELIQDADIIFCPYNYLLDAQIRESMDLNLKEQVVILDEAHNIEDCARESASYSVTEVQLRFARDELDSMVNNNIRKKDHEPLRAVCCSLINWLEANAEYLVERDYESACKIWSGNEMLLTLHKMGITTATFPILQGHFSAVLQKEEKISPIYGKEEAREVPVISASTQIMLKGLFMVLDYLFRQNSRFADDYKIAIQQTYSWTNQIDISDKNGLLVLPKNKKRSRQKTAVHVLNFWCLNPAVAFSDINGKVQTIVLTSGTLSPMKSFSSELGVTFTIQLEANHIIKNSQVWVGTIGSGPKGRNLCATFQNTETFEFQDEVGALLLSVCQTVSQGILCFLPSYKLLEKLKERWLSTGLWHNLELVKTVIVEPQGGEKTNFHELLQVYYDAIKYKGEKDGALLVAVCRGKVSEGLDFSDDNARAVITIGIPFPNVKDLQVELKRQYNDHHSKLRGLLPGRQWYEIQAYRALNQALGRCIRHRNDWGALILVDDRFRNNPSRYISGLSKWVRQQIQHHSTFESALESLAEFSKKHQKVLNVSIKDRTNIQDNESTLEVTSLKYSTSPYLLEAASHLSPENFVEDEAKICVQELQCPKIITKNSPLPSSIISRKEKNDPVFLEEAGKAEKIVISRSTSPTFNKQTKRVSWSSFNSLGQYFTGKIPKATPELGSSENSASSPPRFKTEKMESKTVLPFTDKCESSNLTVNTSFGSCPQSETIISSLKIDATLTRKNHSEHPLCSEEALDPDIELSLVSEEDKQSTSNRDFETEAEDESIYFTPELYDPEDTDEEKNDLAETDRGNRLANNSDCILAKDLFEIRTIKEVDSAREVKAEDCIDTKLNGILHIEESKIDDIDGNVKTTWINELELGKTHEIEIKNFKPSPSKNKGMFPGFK

[3] = target: T3, Flag-tagged FANCJ wild type (in HeLa FJ-KO cells) (human) (UniProt Q9BX63)
T3 sequence: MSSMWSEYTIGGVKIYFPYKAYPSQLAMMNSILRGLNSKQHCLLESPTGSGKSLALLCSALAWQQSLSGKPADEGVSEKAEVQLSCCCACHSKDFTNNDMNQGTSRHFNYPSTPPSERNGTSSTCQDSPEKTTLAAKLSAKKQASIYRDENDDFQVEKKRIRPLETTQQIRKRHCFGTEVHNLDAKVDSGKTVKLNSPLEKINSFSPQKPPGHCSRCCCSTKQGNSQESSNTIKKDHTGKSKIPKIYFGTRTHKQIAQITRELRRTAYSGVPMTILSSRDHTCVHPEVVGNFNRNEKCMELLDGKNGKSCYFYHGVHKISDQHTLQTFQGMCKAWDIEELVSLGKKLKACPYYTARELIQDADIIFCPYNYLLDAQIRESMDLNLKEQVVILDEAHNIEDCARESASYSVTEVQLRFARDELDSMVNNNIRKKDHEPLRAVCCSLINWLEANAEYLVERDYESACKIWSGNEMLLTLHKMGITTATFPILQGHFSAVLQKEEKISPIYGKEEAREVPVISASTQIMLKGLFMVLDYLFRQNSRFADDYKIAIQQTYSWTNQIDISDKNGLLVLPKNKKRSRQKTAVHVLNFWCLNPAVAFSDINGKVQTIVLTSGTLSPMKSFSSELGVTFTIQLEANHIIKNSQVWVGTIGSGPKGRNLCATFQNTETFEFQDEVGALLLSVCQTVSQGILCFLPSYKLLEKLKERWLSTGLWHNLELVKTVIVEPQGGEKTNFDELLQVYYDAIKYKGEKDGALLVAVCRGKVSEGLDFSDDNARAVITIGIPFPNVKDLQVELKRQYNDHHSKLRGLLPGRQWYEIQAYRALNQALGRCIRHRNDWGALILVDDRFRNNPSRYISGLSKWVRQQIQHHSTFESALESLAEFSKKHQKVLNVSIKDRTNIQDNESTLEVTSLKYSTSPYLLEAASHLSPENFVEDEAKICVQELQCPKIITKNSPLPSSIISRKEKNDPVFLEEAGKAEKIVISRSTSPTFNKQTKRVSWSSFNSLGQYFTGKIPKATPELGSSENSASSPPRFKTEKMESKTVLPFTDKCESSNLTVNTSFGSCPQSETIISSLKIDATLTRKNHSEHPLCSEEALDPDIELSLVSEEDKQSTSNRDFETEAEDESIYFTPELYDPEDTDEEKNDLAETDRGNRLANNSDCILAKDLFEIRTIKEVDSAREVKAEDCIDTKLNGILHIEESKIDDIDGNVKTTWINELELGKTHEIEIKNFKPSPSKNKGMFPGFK

Measured: binding

B1: endogenous AND-1 (HeLa FJ-KO) (protein, UniProt O75717 1-1129)
chain: MPATRKPMRYGHTEGHTEVCFDDSGSFIVTCGSDGDVRIWEDLDDDDPKFINVGEKAYSCALKSGKLVTAVSNNTIQVHTFPEGVPDGILTRFTTNANHVVFNGDGTKIAAGSSDFLVKIVDVMDSSQQKTFRGHDAPVLSLSFDPKDIFLASASCDGSVRVWQISDQTCAISWPLLQKCNDVINAKSICRLAWQPKSGKLLAIPVEKSVKLYRRESWSHQFDLSDNFISQTLNIVTWSPCGQYLAAGSINGLIIVWNVETKDCMERVKHEKGYAICGLAWHPTCGRISYTDAEGNLGLLENVCDPSGKTSSSKVSSRVEKDYNDLFDGDDMSNAGDFLNDNAVEIPSFSKGIINDDEDDEDLMMASGRPRQRSHILEDDENSVDISMLKTGSSLLKEEEEDGQEGSIHNLPLVTSQRPFYDGPMPTPRQKPFQSGSTPLHLTHRFMVWNSIGIIRCYNDEQDNAIDVEFHDTSIHHATHLSNTLNYTIADLSHEAILLACESTDELASKLHCLHFSSWDSSKEWIIDLPQNEDIEAICLGQGWAAAATSALLLRLFTIGGVQKEVFSLAGPVVSMAGHGEQLFIVYHRGTGFDGDQCLGVQLLELGKKKKQILHGDPLPLTRKSYLAWIGFSAEGTPCYVDSEGIVRMLNRGLGNTWTPICNTREHCKGKSDHYWVVGIHENPQQLRCIPCKGSRFPPTLPRPAVAILSFKLPYCQIATEKGQMEEQFWRSVIFHNHLDYLAKNGYEYEESTKNQATKEQQELLMKMLALSCKLEREFRCVELADLMTQNAVNLAIKYASRSRKLILAQKLSELAVEKAAELTATQVEEEEEEEDFRKKLNAGYSNTATEWSQPRFRNQVEEDAEDSGEADDEEKPEIHKPGQNSFSKSTNSSDVSAKSGAVTFSSQGRVNPFKVSASSKEPAMSMNSARSTNILDNMGKSSKKSTALSRTTNNEKSPIIKPLIPKPKPKQASAASYFQKRNSQTNKTEEVKEENLKNVLSETPAICPPQNTENQRPKTGFQMWLEENRSNILSDNPDFSDEADIIKEGMIRFRVLSTEERKVWANKAKGETASEGTEAKKRKRVVDESDETENQEEKAKENLNLSKKQKPLDFSTNQKLSAFAFKQE
binds: all assays above
